Assay results: patent publication US12729225B2, “Non-canonical SWI/SNF complex and uses thereof” (Dana-Farber Cancer Institute, Inc., priority 2018, dated 2026)

Tested on: mSWI/SNF complexes
Test: mSWI/SNF complex purification with HA-tagged baits and mass spectrometry (peptide counts)
Parameters: species or system human
[1] = total peptide count of the co-purified protein, 293_HA-BRD9 (HA-BRD9 bait, mass spectrometry), Table 3b
[2] = unique peptide count of the co-purified protein, 293_HA-BRD9 (HA-BRD9 bait, mass spectrometry), Table 3b
[3] = 293_HA-BRD7: HA-BRD7 bait purification, total peptide count per co-purified protein
[4] = 293_HA-BRD7: HA-BRD7 bait purification, unique peptide count per co-purified protein

B1: CDSN (protein, UniProt Q15517 33-529, looked up)
Corneodesmosin: KSIGTFSDPCKDPTRITSPNDPCLTGKGDSSGFSSYSGSSSSGSSISSARSSGGGSSGSSSGSSIAQGGSAGSFKPGTGYSQVSYSSGSGSSLQGASGSSQLGSSSSHSGNSGSHSGSSSSHSSSSSSFQFSSSSFQVGNGSALPTNDNSYRGILNPSQPGQSSSSSQTFGVSSSGQSVSSNQRPCSSDIPDSPCSGGPIVSHSGPYIPSSHSVSGGQRPVVVVVDQHGSGAPGVVQGPPCSNGGLPGKPCPPITSVDKSYGGYEVVGGSSDSYLVPGMTYSKGKIYPVGYFTKENPVKGSPGVPSFAAGPPISEGKYFSSNPIIPSQSAASSAIAFQPVGTGGVQLCGGGSTGSKGPCSPSSSRVPSSSSISSSSGLPYHPCGSASQSPCSPPGTGSFSSSSSSQSSGKIILQPCGSKSSSSGHPCMSVSSLTLTGGPDGSPHPDPSAGAKPCGSSSAGKIPCRSIRDILAQVKPLGPQLADPEVFLPQGELLNSP
- Total [1]: 2
- Unique [2]: 2

B2: IMMT (protein, UniProt Q16891 34-758, looked up)
MICOS complex subunit MIC60: STSGSSGLTTGKIAGAGLLFVGGGIGGTILYAKWDSHFRESVEKTIPYSDKLFEMVLGPAAYNVPLPKKSIQSGPLKISSVSEVMKESKQPASQLQKQKGDTPASATAPTEAAQIISAAGDTLSVPAPAVQPEESLKTDHPEIGEGKPTPALSEEASSSSIRERPPEEVAARLAQQEKQEQVKIESLAKSLEDALRQTASVTLQAIAAQNAAVQAVNAHSNILKAAMDNSEIAGEKKSAQWRTVEGALKERRKAVDEAADALLKAKEELEKMKSVIENAKKKEVAGAKPHITAAEGKLHNMIVDLDNVVKKVQAAQSEAKVVSQYHELVVQARDDFKRELDSITPEVLPGWKGMSVSDLADKLSTDDLNSLIAHAHRRIDQLNRELAEQKATEKQHITLALEKQKLEEKRAFDSAVAKALEHHRSEIQAEQDRKIEEVRDAMENEMRTQLRRQAAAHTDHLRDVLRVQEQELKSEFEQNLSEKLSEQELQFRRLSQEQVDNFTLDINTAYARLRGIEQAVQSHAVAEEEARKAHQLWLSVEALKYSMKTSSAETPTIPLGSAVEAIKANCSDNEFTQALTAAIPPESLTRGVYSEETLRARFYAVQKLARRVAMIDETRNSLYQYFLSYLQSLLLFPPQQLKPPPELCPEDINTFKLLSYASYCIEHGDLELAAKFVNQLKGESRRVAQDWLKEARMTLETKQIVEILTAYASAVGIGTTQVQPE
- Total [3]: 8
- Unique [4]: 7
- Total [1]: 3
- Unique [2]: 3

B3: SLC25A12 (protein, UniProt O75746 2-678, looked up)
Electrogenic …: AVKVQTTKRGDPHELRNIFLQYASTEVDGERYMTPEDFVQRYLGLYNDPNSNPKIVQLLAGVADQTKDGLISYQEFLAFESVLCAPDSMFIVAFQLFDKSGNGEVTFENVKEIFGQTIIHHHIPFNWDCEFIRLHFGHNRKKHLNYTEFTQFLQELQLEHARQAFALKDKSKSGMISGLDFSDIMVTIRSHMLTPFVEENLVSAAGGSISHQVSFSYFNAFNSLLNNMELVRKIYSTLAGTRKDVEVTKEEFAQSAIRYGQVTPLEIDILYQLADLYNASGRLTLADIERIAPLAEGALPYNLAELQRQQSPGLGRPIWLQIAESAYRFTLGSVAGAVGATAVYPIDLVKTRMQNQRGSGSVVGELMYKNSFDCFKKVLRYEGFFGLYRGLIPQLIGVAPEKAIKLTVNDFVRDKFTRRDGSVPLPAEVLAGGCAGGSQVIFTNPLEIVKIRLQVAGEITTGPRVSALNVLRDLGIFGLYKGAKACFLRDIPFSAIYFPVYAHCKLLLADENGHVGGLNLLAAGAMAGVPAASLVTPADVIKTRLQVAARAGQTTYSGVIDCFRKILREEGPSAFWKGTAARVFRSSPQFGVTLVTYELLQRWFYIDFGGLKPAGSEPTPKSRIADLPPANPDHIGGYRLATATFAGIENKFGLYLPKFKSPSVAVVQPKAAVAATQ
- Total [3]: 9
- Unique [4]: 9
- Total [1]: 3
- Unique [2]: 3

B4: MATR3 (protein, UniProt P43243 2-847, looked up)
Matrin-3: SKSFQQSSLSRDSQGHGRDLSAAGIGLLAAATQSLSMPASLGRMNQGTARLASLMNLGMSSSLNQQGAHSALSSASTSSHNLQSIFNIGSRGPLPLSSQHRGDADQASNILASFGLSARDLDELSRYPEDKITPENLPQILLQLKRRRTEEGPTLSYGRDGRSATREPPYRVPRDDWEEKRHFRRDSFDDRGPSLNPVLDYDHGSRSQESGYYDRMDYEDDRLRDGERCRDDSFFGETSHNYHKFDSEYERMGRGPGPLQERSLFEKKRGAPPSSNIEDFHGLLPKGYPHLCSICDLPVHSNKEWSQHINGASHSRRCQLLLEIYPEWNPDNDTGHTMGDPFMLQQSTNPAPGILGPPPPSFHLGGPAVGPRGNLGAGNGNLQGPRHMQKGRVETSRVVHIMDFQRGKNLRYQLLQLVEPFGVISNHLILNKINEAFIEMATTEDAQAAVDYYTTTPALVFGKPVRVHLSQKYKRIKKPEGKPDQKFDQKQELGRVIHLSNLPHSGYSDSAVLKLAEPYGKIKNYILMRMKSQAFIEMETREDAMAMVDHCLKKALWFQGRCVKVDLSEKYKKLVLRIPNRGIDLLKKDKSRKRSYSPDGKESPSDKKSKTDGSQKTESSTEGKEQEEKSGEDGEKDTKDDQTEQEPNMLLESEDELLVDEEEAAALLESGSSVGDETDLANLGDVASDGKKEPSDKAVKKDGSASAAAKKKLKKVDKIEELDQENEAALENGIKNEENTEPGAESSENADDPNKDTSENADGQSDENKDDYTIPDEYRIGPYQPNVPVGIDYVIPKTGFYCKLCSLFYTNEEVAKNTHCSSLPHYQKLKKFLNKLAEERRQKKET
- Total [3]: 14
- Unique [4]: 13
- Total [1]: 3
- Unique [2]: 3

B5: DDX28 (protein, UniProt Q9NUL7 1-540, looked up)
Probable ATP-dependent RNA …: MALTRPVRLFSLVTRLLLAPRRGLTVRSPDEPLPVVRIPVALQRQLEQRQSRRRNLPRPVLVRPGPLLVSARRPELNQPARLTLGRWERAPLASQGWKSRRARRDHFSIERAQQEAPAVRKLSSKGSFADLGLEPRVLHALQEAAPEVVQPTTVQSSTIPSLLRGRHVVCAAETGSGKTLSYLLPLLQRLLGQPSLDSLPIPAPRGLVLVPSRELAQQVRAVAQPLGRSLGLLVRDLEGGHGMRRIRLQLSRQPSADVLVATPGALWKALKSRLISLEQLSFLVLDEADTLLDESFLELVDYILEKSHIAEGPADLEDPFNPKAQLVLVGATFPEGVGQLLNKVASPDAVTTITSSKLHCIMPHVKQTFLRLKGADKVAELVHILKHRDRAERTGPSGTVLVFCNSSSTVNWLGYILDDHKIQHLRLQGQMPALMRVGIFQSFQKSSRDILLCTDIASRGLDSTGVELVVNYDFPPTLQDYIHRAGRVGRVGSEVPGTVISFVTHPWDVSLVQKIELAARRRRSLPGLASSVKEPLPQAT
- Total [3]: 9
- Unique [4]: 9
- Total [1]: 3
- Unique [2]: 2

B6: RBM15 (protein, UniProt Q96T37 1-977, looked up)
RNA-binding protein 15: MRTAGRDPVPRRSPRWRRAVPLCETSAGRRVTQLRGDDLRRPATMKGKERSPVKAKRSRGGEDSTSRGERSKKLGGSGGSNGSSSGKTDSGGGSRRSLHLDKSSSRGGSREYDTGGGSSSSRLHSYSSPSTKNSSGGGESRSSSRGGGGESRSSGAASSAPGGGDGAEYKTLKISELGSQLSDEAVEDGLFHEFKRFGDVSVKISHLSGSGSGDERVAFVNFRRPEDARAAKHARGRLVLYDRPLKIEAVYVSRRRSRSPLDKDTYPPSASVVGASVGGHRHPPGGGGGQRSLSPGGAALGYRDYRLQQLALGRLPPPPPPPLPRDLERERDYPFYERVRPAYSLEPRVGAGAGAAPFREVDEISPEDDQRANRTLFLGNLDITVTESDLRRAFDRFGVITEVDIKRPSRGQTSTYGFLKFENLDMSHRAKLAMSGKIIIRNPIKIGYGKATPTTRLWVGGLGPWVPLAALAREFDRFGTIRTIDYRKGDSWAYIQYESLDAAHAAWTHMRGFPLGGPDRRLRVDFADTEHRYQQQYLQPLPLTHYELVTDAFGHRAPDPLRGARDRTPPLLYRDRDRDLYPDSDWVPPPPPVRERSTRTAATSVPAYEPLDSLDRRRDGWSLDRDRGDRDLPSSRDQPRKRRLPEESGGRHLDRSPESDRPRKRHCAPSPDRSPELSSSRDRYNSDNDRSSRLLLERPSPIRDRRGSLEKSQGDKRDRKNSASAERDRKHRTTAPTEGKSPLKKEDRSDGSAPSTSTASSKLKSPSQKQDGGTAPVASASPKLCLAWQGMLLLKNSNFPSNMHLLQGDLQVASSLLVEGSTGGKVAQLKITQRLRLDQPKLDEVTRRIKVAGPNGYAILLAVPGSSDSRSSSSSAASDTATSTQRPLRNLVSYLKQKQAAGVISLPVGGNKDKENTGVLHAFPPCEFSQQFLDSPAKALAKSEEDYLVMIIVRGFGFQIGVRYENKKRENLALTLL
- Total [3]: 9
- Unique [4]: 9
- Total [1]: 2
- Unique [2]: 2

B7: SLC25A13 (protein, UniProt Q9UJS0 2-675, looked up)
Electrogenic …: AAAKVALTKRADPAELRTIFLKYASIEKNGEFFMSPNDFVTRYLNIFGESQPNPKTVELLSGVVDQTKDGLISFQEFVAFESVLCAPDALFMVAFQLFDKAGKGEVTFEDVKQVFGQTTIHQHIPFNWDSEFVQLHFGKERKRHLTYAEFTQFLLEIQLEHAKQAFVQRDNARTGRVTAIDFRDIMVTIRPHVLTPFVEECLVAAAGGTTSHQVSFSYFNGFNSLLNNMELIRKIYSTLAGTRKDVEVTKEEFVLAAQKFGQVTPMEVDILFQLADLYEPRGRMTLADIERIAPLEEGTLPFNLAEAQRQKASGDSARPVLLQVAESAYRFGLGSVAGAVGATAVYPIDLVKTRMQNQRSTGSFVGELMYKNSFDCFKKVLRYEGFFGLYRGLLPQLLGVAPEKAIKLTVNDFVRDKFMHKDGSVPLAAEILAGGCAGGSQVIFTNPLEIVKIRLQVAGEITTGPRVSALSVVRDLGFFGIYKGAKACFLRDIPFSAIYFPCYAHVKASFANEDGQVSPGSLLLAGAIAGMPAASLVTPADVIKTRLQVAARAGQTTYSGVIDCFRKILREEGPKALWKGAGARVFRSSPQFGVTLLTYELLQRWFYIDFGGVKPMGSEPVPKSRINLPAPNPDHVGGYKLAVATFAGIENKFGLYLPLFKPSVSTSKAIGGGP
- Total [3]: 14
- Unique [4]: 14
- Total [1]: 2
- Unique [2]: 2
